The list shows a part of the results. Residues, ends and D or L forms follow the SMILES beside them. *: point of attachment. Cbz = O=C(OCc1ccccc1)*
Key:
Experiment in all cases: log2 fold change, soluble protein after heating vs DMSO (PISA); higher = thermal stabilisation; K562 cells, 10 uM, 30 min; active = over 0.2 and 3.5 SD of the protein, either way, in both replicates (recomputed)
erlotinib = compound: C#Cc1cccc(Nc2ncnc3cc(OCCOC)c(OCCOC)cc23)c1 [erlotinib]
Procedure, shortened: (§1)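 K562 cells at 2×10^6 cells/mL were exposed to 10 μM compound for 30 min, then aliquots were heated for 3 min across 48°C-58°C, pooled, and extracted in PBS containing 0.5% NP-40 at 4°C. The supernatant after 21,000xg for 90 min was taken as soluble protein and measured by TMTpro 16plex LC-MS/MS with channel sums equalised. Thermal stability is reported relative to control samples, with values from duplicates. Fold changes are given on a log2 scale.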

By UniProt entry, the sequences of proteins in these tests, tags left out. Where a name states a change or a piece, a line headed by the entry shows the natural chain unless it says otherwise.
UniProt Q6P4H8: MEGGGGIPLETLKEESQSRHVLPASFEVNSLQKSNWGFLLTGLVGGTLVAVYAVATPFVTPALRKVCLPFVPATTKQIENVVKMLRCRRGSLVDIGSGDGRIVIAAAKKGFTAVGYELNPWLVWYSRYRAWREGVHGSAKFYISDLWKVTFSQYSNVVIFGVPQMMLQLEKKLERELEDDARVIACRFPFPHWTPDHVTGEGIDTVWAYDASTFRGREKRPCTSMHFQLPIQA
UniProt Q2TAZ0: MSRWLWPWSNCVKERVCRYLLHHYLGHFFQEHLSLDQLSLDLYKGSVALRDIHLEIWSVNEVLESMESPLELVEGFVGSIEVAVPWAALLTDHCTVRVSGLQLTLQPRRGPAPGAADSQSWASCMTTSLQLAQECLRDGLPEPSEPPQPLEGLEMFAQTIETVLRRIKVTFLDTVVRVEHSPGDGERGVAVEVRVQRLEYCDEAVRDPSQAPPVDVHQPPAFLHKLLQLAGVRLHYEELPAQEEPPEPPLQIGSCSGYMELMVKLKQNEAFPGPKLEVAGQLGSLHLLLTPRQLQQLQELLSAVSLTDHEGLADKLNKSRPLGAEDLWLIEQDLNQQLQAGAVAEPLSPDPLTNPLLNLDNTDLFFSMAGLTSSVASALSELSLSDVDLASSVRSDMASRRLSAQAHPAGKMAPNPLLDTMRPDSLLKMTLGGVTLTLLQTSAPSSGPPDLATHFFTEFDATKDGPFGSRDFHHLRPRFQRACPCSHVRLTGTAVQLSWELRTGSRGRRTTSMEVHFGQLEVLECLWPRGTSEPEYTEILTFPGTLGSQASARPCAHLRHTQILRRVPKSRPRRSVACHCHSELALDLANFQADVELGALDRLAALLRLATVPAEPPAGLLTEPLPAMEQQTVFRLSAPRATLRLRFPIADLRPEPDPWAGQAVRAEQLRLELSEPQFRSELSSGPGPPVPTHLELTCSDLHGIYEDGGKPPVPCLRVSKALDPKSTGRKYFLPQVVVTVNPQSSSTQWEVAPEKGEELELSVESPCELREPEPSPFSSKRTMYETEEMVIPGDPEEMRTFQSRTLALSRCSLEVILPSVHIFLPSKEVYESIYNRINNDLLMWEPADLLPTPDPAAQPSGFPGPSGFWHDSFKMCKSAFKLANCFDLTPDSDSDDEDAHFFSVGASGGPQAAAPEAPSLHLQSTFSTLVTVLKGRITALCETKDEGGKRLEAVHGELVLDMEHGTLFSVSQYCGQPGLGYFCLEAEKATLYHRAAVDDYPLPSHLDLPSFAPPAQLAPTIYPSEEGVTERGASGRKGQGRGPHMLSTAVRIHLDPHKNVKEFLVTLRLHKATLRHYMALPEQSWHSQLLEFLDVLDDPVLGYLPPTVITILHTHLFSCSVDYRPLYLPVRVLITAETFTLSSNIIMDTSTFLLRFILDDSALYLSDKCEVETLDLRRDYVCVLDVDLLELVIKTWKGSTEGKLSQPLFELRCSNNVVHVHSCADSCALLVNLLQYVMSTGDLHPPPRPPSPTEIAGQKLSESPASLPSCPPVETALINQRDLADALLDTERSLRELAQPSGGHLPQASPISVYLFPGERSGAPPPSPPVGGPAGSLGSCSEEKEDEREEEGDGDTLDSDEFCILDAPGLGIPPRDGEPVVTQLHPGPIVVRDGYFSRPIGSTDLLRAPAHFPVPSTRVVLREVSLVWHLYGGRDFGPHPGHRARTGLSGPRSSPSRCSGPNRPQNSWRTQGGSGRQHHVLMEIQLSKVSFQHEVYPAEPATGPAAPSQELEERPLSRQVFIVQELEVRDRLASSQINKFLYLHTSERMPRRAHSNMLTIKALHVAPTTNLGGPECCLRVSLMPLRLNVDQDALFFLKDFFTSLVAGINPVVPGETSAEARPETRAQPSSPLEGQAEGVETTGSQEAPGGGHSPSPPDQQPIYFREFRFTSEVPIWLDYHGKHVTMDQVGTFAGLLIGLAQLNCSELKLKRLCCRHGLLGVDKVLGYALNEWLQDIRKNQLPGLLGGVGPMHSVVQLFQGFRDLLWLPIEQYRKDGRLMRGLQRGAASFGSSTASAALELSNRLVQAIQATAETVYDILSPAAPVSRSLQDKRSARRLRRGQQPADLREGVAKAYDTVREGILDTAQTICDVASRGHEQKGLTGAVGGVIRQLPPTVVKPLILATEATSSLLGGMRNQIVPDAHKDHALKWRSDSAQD
UniProt Q8IUR7, whole entry, looked up: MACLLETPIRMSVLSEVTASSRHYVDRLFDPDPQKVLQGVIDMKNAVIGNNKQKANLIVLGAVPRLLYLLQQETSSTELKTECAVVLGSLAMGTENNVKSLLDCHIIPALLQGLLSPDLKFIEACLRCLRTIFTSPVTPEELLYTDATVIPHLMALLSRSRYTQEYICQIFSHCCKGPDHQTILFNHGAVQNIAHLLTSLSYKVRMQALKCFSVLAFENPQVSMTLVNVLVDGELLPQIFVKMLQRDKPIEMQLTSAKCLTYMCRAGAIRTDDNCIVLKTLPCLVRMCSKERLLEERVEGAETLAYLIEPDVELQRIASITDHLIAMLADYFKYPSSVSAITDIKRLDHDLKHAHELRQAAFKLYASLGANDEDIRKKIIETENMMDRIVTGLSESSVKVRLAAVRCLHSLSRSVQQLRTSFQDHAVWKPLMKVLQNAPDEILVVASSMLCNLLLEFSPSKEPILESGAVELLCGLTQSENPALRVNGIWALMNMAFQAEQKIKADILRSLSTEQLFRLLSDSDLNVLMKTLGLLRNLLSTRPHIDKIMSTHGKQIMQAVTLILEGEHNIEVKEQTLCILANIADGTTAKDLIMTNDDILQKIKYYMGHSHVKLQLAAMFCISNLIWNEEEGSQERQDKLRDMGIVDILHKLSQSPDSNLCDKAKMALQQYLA
UniProt P18846: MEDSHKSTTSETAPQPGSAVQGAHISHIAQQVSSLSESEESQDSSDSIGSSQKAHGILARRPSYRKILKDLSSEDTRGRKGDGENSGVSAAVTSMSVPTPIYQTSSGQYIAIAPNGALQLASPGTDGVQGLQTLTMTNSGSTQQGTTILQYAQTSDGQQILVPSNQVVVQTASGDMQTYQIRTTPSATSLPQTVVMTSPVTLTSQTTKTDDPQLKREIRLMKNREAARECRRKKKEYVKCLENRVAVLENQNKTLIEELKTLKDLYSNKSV
UniProt Q66PJ3: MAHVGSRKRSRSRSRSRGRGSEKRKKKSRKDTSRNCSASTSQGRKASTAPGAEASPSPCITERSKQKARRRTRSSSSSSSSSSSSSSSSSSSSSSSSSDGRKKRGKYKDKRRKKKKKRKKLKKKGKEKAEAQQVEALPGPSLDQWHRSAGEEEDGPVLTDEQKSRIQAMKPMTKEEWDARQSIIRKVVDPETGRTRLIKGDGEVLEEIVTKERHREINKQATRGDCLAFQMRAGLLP
UniProt Q9H0F7: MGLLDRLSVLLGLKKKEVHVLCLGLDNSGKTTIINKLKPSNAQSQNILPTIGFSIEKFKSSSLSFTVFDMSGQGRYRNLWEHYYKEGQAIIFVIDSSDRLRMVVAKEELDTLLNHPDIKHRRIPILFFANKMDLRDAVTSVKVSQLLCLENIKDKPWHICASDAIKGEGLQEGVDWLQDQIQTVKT
UniProt P98198: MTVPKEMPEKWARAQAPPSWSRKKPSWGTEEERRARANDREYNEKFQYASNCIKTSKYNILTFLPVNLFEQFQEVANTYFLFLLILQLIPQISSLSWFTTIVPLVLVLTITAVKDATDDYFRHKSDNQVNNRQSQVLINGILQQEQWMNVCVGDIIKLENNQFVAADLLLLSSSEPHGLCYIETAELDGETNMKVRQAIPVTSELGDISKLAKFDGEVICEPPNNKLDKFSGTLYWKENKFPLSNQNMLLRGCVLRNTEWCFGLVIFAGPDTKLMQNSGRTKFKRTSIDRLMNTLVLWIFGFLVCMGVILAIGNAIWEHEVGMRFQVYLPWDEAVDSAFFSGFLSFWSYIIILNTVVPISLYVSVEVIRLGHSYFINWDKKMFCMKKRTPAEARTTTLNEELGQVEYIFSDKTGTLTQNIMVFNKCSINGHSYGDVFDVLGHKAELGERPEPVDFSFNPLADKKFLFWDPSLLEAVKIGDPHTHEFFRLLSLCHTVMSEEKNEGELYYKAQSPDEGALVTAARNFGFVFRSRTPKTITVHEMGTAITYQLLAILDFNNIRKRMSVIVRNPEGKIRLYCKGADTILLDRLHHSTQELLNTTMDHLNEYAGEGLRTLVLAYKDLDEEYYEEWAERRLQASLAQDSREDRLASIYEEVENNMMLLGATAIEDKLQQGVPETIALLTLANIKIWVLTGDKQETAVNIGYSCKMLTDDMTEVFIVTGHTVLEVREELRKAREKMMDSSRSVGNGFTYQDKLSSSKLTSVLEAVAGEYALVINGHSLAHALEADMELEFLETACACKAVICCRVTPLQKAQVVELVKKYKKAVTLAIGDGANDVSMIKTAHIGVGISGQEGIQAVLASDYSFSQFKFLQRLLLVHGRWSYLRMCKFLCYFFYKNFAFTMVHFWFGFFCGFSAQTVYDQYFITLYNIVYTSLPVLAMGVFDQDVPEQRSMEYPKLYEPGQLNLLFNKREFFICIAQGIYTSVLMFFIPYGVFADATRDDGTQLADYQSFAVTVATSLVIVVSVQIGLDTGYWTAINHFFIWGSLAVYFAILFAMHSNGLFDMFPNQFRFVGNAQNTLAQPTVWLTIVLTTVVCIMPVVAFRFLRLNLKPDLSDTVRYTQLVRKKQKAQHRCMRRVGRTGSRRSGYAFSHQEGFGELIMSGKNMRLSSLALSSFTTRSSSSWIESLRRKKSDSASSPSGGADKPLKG
UniProt Q8IXJ9: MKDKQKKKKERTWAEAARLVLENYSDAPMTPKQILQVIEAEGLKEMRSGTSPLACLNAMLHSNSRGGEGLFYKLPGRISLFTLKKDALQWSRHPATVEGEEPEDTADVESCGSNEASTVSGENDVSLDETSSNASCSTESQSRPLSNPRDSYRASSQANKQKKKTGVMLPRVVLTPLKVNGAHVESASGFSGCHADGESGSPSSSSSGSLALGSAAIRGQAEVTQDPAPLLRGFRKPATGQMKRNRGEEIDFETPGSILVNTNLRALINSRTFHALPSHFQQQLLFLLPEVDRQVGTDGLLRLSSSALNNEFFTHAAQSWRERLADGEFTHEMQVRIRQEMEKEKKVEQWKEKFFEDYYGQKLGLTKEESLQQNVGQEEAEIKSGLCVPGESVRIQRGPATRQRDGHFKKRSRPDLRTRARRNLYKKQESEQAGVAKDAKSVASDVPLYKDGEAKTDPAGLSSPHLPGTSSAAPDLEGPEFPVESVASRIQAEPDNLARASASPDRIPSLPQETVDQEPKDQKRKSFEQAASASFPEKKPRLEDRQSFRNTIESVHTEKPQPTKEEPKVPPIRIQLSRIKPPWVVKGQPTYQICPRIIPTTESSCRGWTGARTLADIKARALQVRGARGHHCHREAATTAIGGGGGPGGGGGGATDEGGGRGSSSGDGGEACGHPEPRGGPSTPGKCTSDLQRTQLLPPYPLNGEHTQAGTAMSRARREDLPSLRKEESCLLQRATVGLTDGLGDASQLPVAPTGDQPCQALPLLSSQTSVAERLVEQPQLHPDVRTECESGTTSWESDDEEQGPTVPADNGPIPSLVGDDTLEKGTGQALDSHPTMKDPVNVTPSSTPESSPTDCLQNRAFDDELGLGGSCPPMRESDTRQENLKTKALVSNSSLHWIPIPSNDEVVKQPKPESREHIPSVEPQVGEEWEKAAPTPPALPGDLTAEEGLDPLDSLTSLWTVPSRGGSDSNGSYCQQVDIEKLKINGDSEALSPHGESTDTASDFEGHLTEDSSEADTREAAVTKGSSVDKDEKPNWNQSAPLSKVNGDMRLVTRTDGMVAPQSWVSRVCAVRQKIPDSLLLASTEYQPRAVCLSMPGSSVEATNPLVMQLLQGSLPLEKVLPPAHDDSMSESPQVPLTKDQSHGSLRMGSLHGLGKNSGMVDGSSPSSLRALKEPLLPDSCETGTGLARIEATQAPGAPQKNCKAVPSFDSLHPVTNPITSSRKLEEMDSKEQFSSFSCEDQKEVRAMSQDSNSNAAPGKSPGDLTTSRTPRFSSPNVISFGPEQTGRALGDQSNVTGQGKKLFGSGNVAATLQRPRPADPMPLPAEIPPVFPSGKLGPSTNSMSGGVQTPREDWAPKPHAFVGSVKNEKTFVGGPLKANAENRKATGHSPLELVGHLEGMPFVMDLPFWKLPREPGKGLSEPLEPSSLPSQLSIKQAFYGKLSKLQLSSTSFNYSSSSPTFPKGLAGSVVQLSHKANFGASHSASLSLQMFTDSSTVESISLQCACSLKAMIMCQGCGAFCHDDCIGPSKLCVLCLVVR
UniProt Q96KC2: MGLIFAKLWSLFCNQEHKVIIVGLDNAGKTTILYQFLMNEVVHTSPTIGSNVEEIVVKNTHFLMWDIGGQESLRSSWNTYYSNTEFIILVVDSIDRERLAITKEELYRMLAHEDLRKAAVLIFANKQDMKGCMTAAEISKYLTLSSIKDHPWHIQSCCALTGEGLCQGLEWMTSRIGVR

[1] = compound: C/C(=N\NC(=O)C1=CC(=CC=C1)S(=O)(=O)N2CCOCC2)/C3=C(C=CC(=C3)Cl)O
Procedure, shortened: as §1

[2] = compound: C1=CC(=C(C=C1Cl)C2=NC3=NC=CN=C3C(=N2)NC4=CC=NC=C4)F
Procedure, shortened: as §1

[3] = compound: C1=CC(=CC=C1C2=NC3=C(N2)C=C(C=C3)C(=O)N)OC4=CC=C(C=C4)Cl
Procedure, shortened: as §1

[4] = compound: C1=CC2=C(C=CC(=C2)/C=C\3/C(=O)NC(=NCC4=CC=CS4)S3)N=C1
Procedure, shortened: as §1

[5] = compound: C1=CC2=NC=CN=C2C=C1/C=C/3\C(=O)NC(=O)S3
Procedure, shortened: as §1

[6] = compound: C1=CC=C2C(=C1)C3=NNC4=CC=CC(=C43)C2=O
Procedure, shortened: as §1

[7] = compound: C1CCN(C1)C(=O)NC2=CC=CC(=C2)NC3=NC=C(C(=N3)NCCC4=CN=CN4)Br
Procedure, shortened: as §1

[8] = compound: C1CN(CCC1(CC2=CC=C(C=C2)Cl)N)C3=NC=NC4=C3C=CN4
Procedure, shortened: as §1

ibrutinib = compound: C=CC(=O)N1CCC[C@@H](n2nc(-c3ccc(Oc4ccccc4)cc3)c3c(N)ncnc32)C1 [ibrutinib]
Procedure, shortened: as §1

[9] = compound: CC(=O)c1cnc2ccc(-c3cc(Cl)c(O)c(Cl)c3)nc2c1N[C@H]1CC[C@H](CN(C)C)CC1
Procedure, shortened: as §1

[10] = compound: CC(C)(O)CC(=O)NCCn1ccc2ncnc(Nc3ccc(Oc4cccc(C(F)(F)F)c4)c(Cl)c3)c21
Procedure, shortened: as §1

[11] = compound: CC(C)C1=C2N=C(C=C(N2N=C1)NCC3=CC=CC=C3)NCCCCCCN
Procedure, shortened: as §1

[12] = compound: CC1=C(C(CC(=O)N1)C2=CC=C(C=C2)C(F)(F)F)C(=O)NC3=C(C=C4C(=C3)C=NN4)F
Procedure, shortened: as §1

[13] = compound: CC1=C(C2=C(C=C1)C(=O)C3=CC=CC=C3N2CCCN)C
Procedure, shortened: as §1

IRAK-1-4 Inhibitor I = compound: C1COCCN1CCN2C3=CC=CC=C3N=C2NC(=O)C4=CC(=CC=C4)[N+](=O)[O-] [IRAK-1-4 Inhibitor I]
Procedure, shortened: as §1

pinometostat = compound: CC(C)N(C[C@H]1O[C@@H](n2cnc3c(N)ncnc32)[C@H](O)[C@@H]1O)[C@H]1C[C@@H](CCc2nc3cc(C(C)(C)C)ccc3[nH]2)C1 [pinometostat]
Procedure, shortened: as §1

[14] = compound: C1=CC=C(C=C1)C2=NC(=C(N2)C3=CC=NC=C3)C4=CC(=C(C=C4)Cl)O
Procedure, shortened: as §1

ralimetinib = compound: CC(C)(C)Cn1c(N)nc2ccc(-c3[nH]c(C(C)(C)C)nc3-c3ccc(F)cc3)nc21 [ralimetinib]
Procedure, shortened: as §1

[15] = compound: CC(C)C[C@@H](C=O)NC(=O)[C@H](CC(C)C)NC(=O)[C@H](CC(C)C)NC(=O)OCc1ccccc1
Procedure, shortened: as §1

Measured: log2 fold change

ATPSCKMT (UniProt Q6P4H8)
inactive: erlotinib 0.052 | [1] 0.179 | [2] 0.062 | [3] -0.007 | [4] -0.037 | [5] 0.026 | [6] 0.012 | [7] -0.072 | [8] 0.038 | ibrutinib -0.056 | [9] 0.002 | [10] -0.091 | [11] 0.01 | [12] 0.041 | [13] -0.001

ATG2A (UniProt Q2TAZ0)
inactive: [2] 0.258 | IRAK-1-4 Inhibitor I 0.132 | [10] -0.247 | pinometostat 0.019

ARMC8 isoform 6 (UniProt Q8IUR7)
inactive: erlotinib -0.145 | [1] 0.081 | [3] -0.168 | [4] -0.075 | [5] 0.078 | [6] -0.067 | ibrutinib 0.016 | [9] 0.038 | [11] 0.053

ATF1 (UniProt P18846)
inactive: erlotinib -0.058 | [1] 0.244 | [2] 0.129 | [3] -0.054 | [4] -0.221 | [5] 0.023 | [6] 0.039 | [7] -0.117 | [8] -0.024 | ibrutinib -0.02 | [9] -0.02 | [10] -0.07 | [11] 0.081 | [13] -0.127

ATP5F1B (UniProt H0YI37)
inactive: [2] -0.312 | [5] -0.187 | ibrutinib 0.213 | [10] 0.156

ASCC2 (UniProt Q9H1I8)
inactive: erlotinib -0.033 | [2] -0.05 | [3] 0.021 | [14] -0.01 | IRAK-1-4 Inhibitor I -0.005 | ralimetinib 0.041 | [10] -0.144 | [11] 0.022 | [15] 0.297 | pinometostat 0.24

ARL6IP4 (UniProt Q66PJ3)
inactive: erlotinib 0.041 | [1] 0.06 | [2] -0.085 | [3] -0.01 | [4] -0.08 | [5] 0 | [14] -0.12 | [6] 0.117 | [7] 0.003 | [8] 0.039 | IRAK-1-4 Inhibitor I 0.049 | ibrutinib 0.026 | [9] 0.018 | ralimetinib 0.01 | [10] 0 | [11] 0.075 | [15] 0.021 | pinometostat -0.03 | [13] 0.049

ARRB1 isoform 2 (UniProt P49407)
inactive: erlotinib 0.009 | [1] 0.066 | [3] 0.061 | [4] 0.046 | [5] 0.12 | [14] 0.029 | [6] -0.14 | [7] 0.058 | [8] 0.087 | IRAK-1-4 Inhibitor I 0.052 | ibrutinib -0.056 | [9] 0.03 | ralimetinib -0.069 | [11] -0.007 | [15] -0.047 | pinometostat -0.032 | [13] -0.048

ARL6 isoform 2 (UniProt Q9H0F7)
inactive: [14] 0.049 | ralimetinib -0.096 | [15] -0.041

ATP8B2 isoform 3 (UniProt P98198)
inactive: [1] -0.349 | [4] -0.176 | [6] 0.116 | [9] 0.231

ASXL1 (UniProt Q8IXJ9)
inactive: erlotinib -0.156 | [2] -0.237 | [3] 0.089 | [5] 0.032 | [7] 0.034 | [8] 0.035 | ibrutinib 0.026 | [10] -0.016 | [11] 0.163 | [13] -0.215

ARL5B (UniProt Q96KC2)
inactive: erlotinib 0.037 | [1] 0.032 | [2] 0.024 | [3] -0.012 | [4] 0.138 | [5] 0.005 | [6] 0.036 | [7] 0.065 | [8] -0.034 | ibrutinib -0.061 | [9] -0.084 | [10] -0.079 | [11] 0.125 | [12] -0.068 | [13] 0.143

Source: the supplement of paper PMC10849652
